For assay [1], the system named is Caenorhabditis elegans ST65 (ncIs13[ajm-1::GFP]). The assay can be described thus: 'Larvae/adult' ratio (MetaXpress pharynx counts; minimum value 1, so it appears to include adults; growth inhibition read-out). The following applies: 10 µM; exposure time: 4-5 days from L1 at 20°C.
For assay [2] the test system is unchanged. The experiment in a line: vulvae per adult worm (MAPK/ERK-dependent vulval induction, MetaXpress) (vulvae/adult); higher = more vulval induction (less MAPK/ERK inhibition). The following applies: 10 µM; exposure time: 4-5 days from L1 at 20°C.

The source of these data is the supplement of paper PMC11409438.

Where a name gives a salt, the structure may show the parent alone. This is one part of the list. Repeats are few or missing, and single values can be far off.

For the compound `CN(c1ncccc1CNc1nc(Nc2ccc3c(c2)CC(=O)N3)ncc1C(F)(F)F)S(C)(=O)=O`, the “'Larvae/adult' ratio” value in assay [1] was found to be 2.61. Also, in assay [2], the “vulvae per adult worm” value came to 0.278.

As to `Cc1c(F)cc(C(=O)NC2CC2)cc1-c1ccc(C(=O)NCC(C)(C)C)cn1`, in assay [1], the “'Larvae/adult' ratio” value amounted to 1.67. Further, the “vulvae per adult worm” value in assay [2] was 0.455.

Regarding `NC(=O)/C(=C/n1cnc(-c2cc(C(F)(F)F)cc(C(F)(F)F)c2)n1)c1cncnc1` [Eltanexor (KPT-8602)], the “'Larvae/adult' ratio” value in assay [1] worked out at 6.5. Besides, in assay [2], the “vulvae per adult worm” value amounted to 0.75.

For the compound `CC1(C)CCC(CN2CCN(c3ccc(C(=O)NS(=O)(=O)c4ccc(NCC5CCOCC5)c([N+](=O)[O-])c4)c(Oc4cnc5[nH]ccc5c4)c3)CC2)=C(c2ccc(Cl)cc2)C1` [Venetoclax (ABT-199, GDC-0199)], in assay [1], the “'Larvae/adult' ratio” value was 2.41. Moreover, in assay [2], the “vulvae per adult worm” value worked out at 0.897.

`CNC(=O)c1ccc(N2C(=S)N(c3ccc(C#N)c(C(F)(F)F)c3)C(=O)C2(C)C)cc1F` [Enzalutamide (MDV3100)]: the “'Larvae/adult' ratio” value in assay [1] is 3.89. The “vulvae per adult worm” value in assay [2] came to 0.556.

As for `CCCC(CCC)C(=O)O` [Valproic acid], in assay [1], the “'Larvae/adult' ratio” value is 2.7. The “vulvae per adult worm” value in assay [2] stood at 1.

`CN(C)C[C@@H]1CCn2cc(c3ccccc32)C2=C(C(=O)NC2=O)c2cn(c3ccccc23)CCO1`: in assay [1], the “'Larvae/adult' ratio” value was 1.59. For the same compound, the “vulvae per adult worm” value in assay [2] stood at 0.838.

For `COc1ccc(-c2ccc3c(N4CCOC[C@@H]4C)nc(N4CCOC[C@@H]4C)nc3n2)cc1CO`, in assay [1], the “'Larvae/adult' ratio” value came out at 1.74. Moreover, in assay [2], the “vulvae per adult worm” value was 0.0263.

As for `O=c1[nH]c(=O)n([C@H]2C[C@H](O)[C@@H](CO)O2)cc1F` [Floxuridine], the “'Larvae/adult' ratio” value in assay [1] came to 1.77. In addition, the “vulvae per adult worm” value in assay [2] was found to be 1.03.

In the case of `O=C(O)c1ccc(CN2CCC(CN[C@@H]3C[C@H]3c3ccccc3)CC2)cc1`, the “'Larvae/adult' ratio” value in assay [1] turned out to be 1.94. For the same compound, the “vulvae per adult worm” value in assay [2] was 1.06.

Turning to `CCCCc1nc2cc(/C=C/C(=O)NO)ccc2n1CCN(CC)CC` [Pracinostat (SB939)], the “'Larvae/adult' ratio” value in assay [1] stood at 1.57. In addition, the “vulvae per adult worm” value in assay [2] was 0.0196.

As to `O=c1[nH]c(=O)n([C@H]2C[C@H](O)[C@@H](CO)O2)cc1C(F)(F)F` [Trifluridine], in assay [1], the “'Larvae/adult' ratio” value came to 1.58. Moreover, the “vulvae per adult worm” value in assay [2] came to 1.11.

As to `Cn1ncc(Cl)c1-c1cc(C(=O)N[C@H](CN)Cc2cccc(F)c2)sc1Cl`, in assay [1], the “'Larvae/adult' ratio” value came to 1.8. In addition, the “vulvae per adult worm” value in assay [2] amounted to 0.9.

For the compound `CN(C)C1CCN(C(=O)c2ccc(NC(=O)Nc3ccc(-c4nc(N5CCOCC5)nc(N5CCOCC5)n4)cc3)cc2)CC1`, the “'Larvae/adult' ratio” value in assay [1] came to 2. Also, the “vulvae per adult worm” value in assay [2] worked out at 0.806.

`CC(=O)O[C@@]12CO[C@@H]1C[C@H](O)[C@@]1(C)C(=O)[C@H](O)C3=C(C)[C@@H](OC(=O)[C@H](O)[C@@H](NC(=O)OC(C)(C)C)c4ccccc4)C[C@@](O)([C@@H](OC(=O)c4ccccc4)[C@H]21)C3(C)C` [Docetaxel]: the “'Larvae/adult' ratio” value in assay [1] worked out at 4. In addition, in assay [2], the “vulvae per adult worm” value was found to be 0.125.

On to `Cc1c(C(=O)Nc2ccc(N3C[C@@H](C)O[C@@H](C)C3)nc2)cccc1-c1ccc(OC(F)(F)F)cc1` [Sonidegib (Erismodegib, NVP-LDE225)], for which the “'Larvae/adult' ratio” value in assay [1] stood at 2.76. Besides, in assay [2], the “vulvae per adult worm” value stood at 0.824.

`COc1cccc(-c2ccc(NC(=O)C3=C(C(=O)O)CCC3)c(F)c2)c1` [Vidofludimus]: in assay [1], the “'Larvae/adult' ratio” value was 2.76. For the same compound, the “vulvae per adult worm” value in assay [2] was determined as 0.824.

In the case of `O=C(O)CC1CC(c2ccccc2)=NO1` (stereo unspecified), in assay [1], the “'Larvae/adult' ratio” value was found to be 1.58. For the same compound, the “vulvae per adult worm” value in assay [2] worked out at 1.17.

For the compound `C=CC(=O)Nc1cccc(Nc2nc(Nc3ccc(OCCOC)cc3)ncc2F)c1` [Spebrutinib (CC-292, AVL-292)], the “'Larvae/adult' ratio” value in assay [1] worked out at 1.88. Besides, the “vulvae per adult worm” value in assay [2] worked out at 0.732.

Take `COC(=O)c1ccc2c(c1)NC(=O)/C2=C(\Nc1ccc(N(C)C(=O)CN2CCN(C)CC2)cc1)c1ccccc1` [Nintedanib (BIBF 1120)]: in assay [1], the “'Larvae/adult' ratio” value worked out at 2.11. In addition, the “vulvae per adult worm” value in assay [2] is 1.09.

`Nc1cccc2c1C(=O)N(C1CCC(=O)NC1=O)C2=O` (stereo unspecified) [Pomalidomide]: the “'Larvae/adult' ratio” value in assay [1] came out at 1.29. Also, in assay [2], the “vulvae per adult worm” value turned out to be 1.

As for `Cc1nc2cccc(N)c2c(=O)n1C1CCC(=O)NC1=O` (stereo unspecified) [Avadomide(CC-122)], the “'Larvae/adult' ratio” value in assay [1] stood at 2.12. The “vulvae per adult worm” value in assay [2] amounted to 0.854.

Consider `COc1cc2c(Oc3ccc4[nH]c(C)cc4c3F)ncnc2cc1OCCCN1CCCC1` [Cediranib (AZD2171)], for which the “'Larvae/adult' ratio” value in assay [1] was 1.68. Also, the “vulvae per adult worm” value in assay [2] came to 0.951.

`C[C@@H](Oc1cc(-c2cnn(C3CCNCC3)c2)cnc1N)c1c(Cl)ccc(F)c1Cl`: the “'Larvae/adult' ratio” value in assay [1] was 1.66. The “vulvae per adult worm” value in assay [2] was 0.977.

On to `CCCCCCCCCCCCCCCCOP(=O)([O-])OCC[N+](C)(C)C` [Miltefosine], for which, in assay [1], the “'Larvae/adult' ratio” value turned out to be 2.33. The “vulvae per adult worm” value in assay [2] worked out at 0.59.

With `O=C1NC(=O)[C@@H](c2cn3c4c(cccc24)CCC3)[C@@H]1c1c[nH]c2ccccc12` [Tivantinib (ARQ 197)], the “'Larvae/adult' ratio” value in assay [1] was determined as 2.77. Also, the “vulvae per adult worm” value in assay [2] turned out to be 0.923.

As to `CC(C)Nc1cc(-c2c[nH]c(C(=O)N[C@H](CO)c3cccc(Cl)c3)c2)c(Cl)cn1`, in assay [1], the “'Larvae/adult' ratio” value was 1.56. Also, in assay [2], the “vulvae per adult worm” value was found to be 0.667.

As for `CC[C@]1(O)C[C@@H]2CN(CCc3c([nH]c4ccccc34)[C@@](C(=O)OC)(c3cc4c(cc3OC)N(C)[C@H]3[C@@](O)(C(=O)OC)[C@H](OC(C)=O)[C@]5(CC)C=CCN6CC[C@]43[C@@H]65)C2)C1` [Vinblastine sulfate], the “'Larvae/adult' ratio” value in assay [1] was determined as 1.82. Besides, the “vulvae per adult worm” value in assay [2] worked out at 1.09.
